This is one part of the list.
Each sequence was assayed against OsWRKY34 (Oryza sativa, UniProt Q0JBA9 1-250) (assay: protein-binding microarray (RPBM); PBS, 2% BSA, 51.3 ng/ul salmon testes DNA, 50 uM zinc acetate, 200 nM TF, 25 C, 1 h; high values mean tight binding). Settings: protein: recombinant; tags: N-terminal polyhistidine and DsRed monomer fusion (pET32a); label: CyDye5-dUTP incorporated in the synthesized complementary strand; 3' TTTTT single-stranded linker to array surface; dsDNA, one strand shown.
Method in brief: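 Binding signal here means per-feature fluorescence intensity in arbitrary units. The values were read on an Axon 4000B scanner after a custom Agilent array, double-stranded by primer extension with Cy5-dUTP, was incubated with 200 nM protein at 25 °C for 1 h in PBS with 2% BSA, salmon testes DNA and 50 µM zinc acetate, then washed. The proteins were transcription factors with an N-terminal polyhistidine tag and DsRed, expressed in E. coli BL21-CodonPlus and purified on Ni–NTA.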

The chains behind the UniProt entries cited, without tags or fusion partners.
UniProt Q0JBA9, entry or part of it: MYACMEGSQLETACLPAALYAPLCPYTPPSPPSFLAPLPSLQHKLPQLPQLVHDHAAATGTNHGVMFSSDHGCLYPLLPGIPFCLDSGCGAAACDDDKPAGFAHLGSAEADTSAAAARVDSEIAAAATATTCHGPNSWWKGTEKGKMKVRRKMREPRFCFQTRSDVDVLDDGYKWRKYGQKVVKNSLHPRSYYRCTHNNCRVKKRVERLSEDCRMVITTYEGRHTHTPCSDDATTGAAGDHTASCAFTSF

In order of falling binding signal:
1. GTTTTAAAATGGTTGACACCGTTGACTTTTTAGCACGTGTCGGAGTCACCTAGTGCAG  30100 fluorescence intensity (a.u.)
2. TGGGGTTTTCAGCTTGCCAATGCTGCATTATCTTCTTTTTCGGAGTCACCTAGTGCAG  17200 fluorescence intensity (a.u.)
3. GGCGGGGTGGCTGTTGTCGACGTCGTGGTGGTCGGCGTCGCGGAGTCACCTAGTGCAG  14900 fluorescence intensity (a.u.)
4. TGGGCTGGGGCTGCTGGGAGGGGTCGGGCCTTCCTTGCACCGGAGTCACCTAGTGCAG  13300 fluorescence intensity (a.u.)
5. TTCTTTCTTTCTTTCTTCTTTCCCTGTTCTGTCTTTCTTCCGGAGTCACCTAGTGCAG  13100 fluorescence intensity (a.u.)
6. GGAGTTTTTTTTTTCATTTTCTTTTTTACCGTTTGTAATTCGGAGTCACCTAGTGCAG  12500 fluorescence intensity (a.u.)
7. CCGTCCCGACCCATCTCCTTCACCCGCCGCCGCCGCCTGCCGGAGTCACCTAGTGCAG  12400 fluorescence intensity (a.u.)
8. TGATTTGATTTGGTTTTTTTCTTTGCTTGATTACTTCCTTCGGAGTCACCTAGTGCAG  12300 fluorescence intensity (a.u.)
9. ACCGTTCGTCCGTTCCGCTCTTCCGCTCCAGTCTCCACCGCGGAGTCACCTAGTGCAG  12300 fluorescence intensity (a.u.)
10. GACTTTTACTGCACACACCTCGCAACTTGTTTCTCAGACTCGGAGTCACCTAGTGCAG  12200 fluorescence intensity (a.u.)
11. ACATGCCCTTGAATCGAATCAATATCTTTGTGTCTGTCTGCGGAGTCACCTAGTGCAG  11600 fluorescence intensity (a.u.)
12. TTGATGGGGTTCCTTGGTTGGTGTTTGATCTCAGATCTGTCGGAGTCACCTAGTGCAG  11400 fluorescence intensity (a.u.)
13. ATTTTCCTAGCTTTTTTATCTCGTTTTCTATGTGCACGCTCGGAGTCACCTAGTGCAG  10100 fluorescence intensity (a.u.)
14. GGAGTGAGTTTGTTTCGTATTCCGCGCGCACGCTTCCCGACGGAGTCACCTAGTGCAG  9780 fluorescence intensity (a.u.)
15. CATTTGCATTTTGTAGTAGTTTTTGTTTTTATTTTGGCCCCGGAGTCACCTAGTGCAG  9760 fluorescence intensity (a.u.)
16. CATTTGCAACGGAGCTCCTTACTCTACCTCGACTTGCAACCGGAGTCACCTAGTGCAG  9590 ± 186 fluorescence intensity (a.u.)
17. TCCCTGTAACCGTACTGCACATCACGTCATCCATTTAAGACGGAGTCACCTAGTGCAG  9390 fluorescence intensity (a.u.)
18. TATATAATTTGTCGTCATTATACACCGTTGTTAGCCTCCACGGAGTCACCTAGTGCAG  9360 fluorescence intensity (a.u.)
19. CACCGTTGTTCCTCCTCAACACGCGCCACTCCTCACATTCCGGAGTCACCTAGTGCAG  9230 fluorescence intensity (a.u.)
20. ACCGCACCTCACCAAAATCTCCATCCATCCGTCTGAATCCCGGAGTCACCTAGTGCAG  9110 fluorescence intensity (a.u.)
21. CCCTTCCCCTCCTCGCGTCGCCTCTCCACTTCGCCTCTATCGGAGTCACCTAGTGCAG  9090 fluorescence intensity (a.u.)
22. TCTAATATTTCCGGGCCCTTTTTACACATGGGCGCCCACGCGGAGTCACCTAGTGCAG  9050 fluorescence intensity (a.u.)
23. TTTGGTGGTGTGCAAGTGGAGTGGTTTATAAAATTATGTCCGGAGTCACCTAGTGCAG  8980 fluorescence intensity (a.u.)
24. CACTTTGGCACTCGTCCATGCCTCATTTTTTCCCCTTCCGCGGAGTCACCTAGTGCAG  8950 fluorescence intensity (a.u.)
25. CTTATGGTCATCCTTTATCTCCATTAGGGAAGTCATCCCCCGGAGTCACCTAGTGCAG  8540 fluorescence intensity (a.u.)
26. TGCAAACTTGCATACCTGTATGTTCTTTGTTTATTTTTTCCGGAGTCACCTAGTGCAG  8480 fluorescence intensity (a.u.)
27. CCGACATGGCCGTGTTCGATCTTGCCCGCGTTAATTAGCACGGAGTCACCTAGTGCAG  8460 fluorescence intensity (a.u.)
28. CCCCATCATCCGAGCAATCTCGGCCGTCCAATCTCCCCACCGGAGTCACCTAGTGCAG  8450 fluorescence intensity (a.u.)
29. TGCTTTTTTCTTTTTATTATATCTATCGGATTTTAATACACGGAGTCACCTAGTGCAG  8410 fluorescence intensity (a.u.)
30. GATCCGCTCGCCCCGCCGCGCCGCCGACCATCGCCATCGCCGGAGTCACCTAGTGCAG  8410 fluorescence intensity (a.u.)
31. TCTGAATTGGGCCCTGTCGCGAAGCCTGCCACCTGAATTGCGGAGTCACCTAGTGCAG  8400 fluorescence intensity (a.u.)
32. CCCCACTTGCCAGTATTGAAATGAGCTGCGCACCTACCCTCGGAGTCACCTAGTGCAG  8360 fluorescence intensity (a.u.)
33. ACTTATCTATGGGCCAACATTGTTCTCCTCCTAATGTGCTCGGAGTCACCTAGTGCAG  8320 fluorescence intensity (a.u.)
34. CCTCCTCCTGCCGTCGTCCCCGCTGCTGCGCGCGACGCTCCGGAGTCACCTAGTGCAG  8300 fluorescence intensity (a.u.)
35. AAACACCACATTCATTTACAAATATTTCCCTCGACTTCCTCGGAGTCACCTAGTGCAG  8250 fluorescence intensity (a.u.)
36. TGATACTCTAAAGATTTTTCCTGAGCTGTACGTTCTGTTTCGGAGTCACCTAGTGCAG  8230 fluorescence intensity (a.u.)
37. GGTCTACTTATATATTGTGGAGGTGGTTCTTATAGCTATCCGGAGTCACCTAGTGCAG  8220 fluorescence intensity (a.u.)
38. CGTCCATCCCCAGTCAAGTTCGCCGCGCGCAACACTCGCACGGAGTCACCTAGTGCAG  8220 fluorescence intensity (a.u.)
39. GTGACCGTTTTGAGCCGTCCGTGCAGGCGTGCATTCACCACGGAGTCACCTAGTGCAG  8200 fluorescence intensity (a.u.)
40. CCATTTTTTTTTCAGAGTTTATAGTTTCATTTTGATTCTTCGGAGTCACCTAGTGCAG  8150 fluorescence intensity (a.u.)
41. TGGTGGTAGTGTGTGTTGGTGTCATAAATACTAAATAAGACGGAGTCACCTAGTGCAG  8060 fluorescence intensity (a.u.)
42. TAACAAATAATGATACAGTCTTCTTATTTTGTCTCTTTTCCGGAGTCACCTAGTGCAG  8040 fluorescence intensity (a.u.)
